The data set can be described thus: peptide synthesis. The note with it: conjugation step.

Results on one substance are retold here after PMC9782470 (Pharmaceuticals, 2022).

In turn, c(RGDfK)-Cy5 came in with a conjugation yield of 59%.
